Experimental data reported in patent US20200206344A1, “METHODS FOR MODULATING THE INTERACTION BETWEEN EWS-FLI1 AND BAF COMPLEXES” (Dana-Farber Cancer Institute, Inc., priority 2017, published 2020).
No constants are given. Whether binding was seen depends on the method and setting. In cells and extracts the contact can be indirect. Some entries that bind do so weakly or less than the wild type. Tags and fused reporters may be left off the sequences shown.

Target: T1, V5-EWS-FLI1 (human)
T1 sequence: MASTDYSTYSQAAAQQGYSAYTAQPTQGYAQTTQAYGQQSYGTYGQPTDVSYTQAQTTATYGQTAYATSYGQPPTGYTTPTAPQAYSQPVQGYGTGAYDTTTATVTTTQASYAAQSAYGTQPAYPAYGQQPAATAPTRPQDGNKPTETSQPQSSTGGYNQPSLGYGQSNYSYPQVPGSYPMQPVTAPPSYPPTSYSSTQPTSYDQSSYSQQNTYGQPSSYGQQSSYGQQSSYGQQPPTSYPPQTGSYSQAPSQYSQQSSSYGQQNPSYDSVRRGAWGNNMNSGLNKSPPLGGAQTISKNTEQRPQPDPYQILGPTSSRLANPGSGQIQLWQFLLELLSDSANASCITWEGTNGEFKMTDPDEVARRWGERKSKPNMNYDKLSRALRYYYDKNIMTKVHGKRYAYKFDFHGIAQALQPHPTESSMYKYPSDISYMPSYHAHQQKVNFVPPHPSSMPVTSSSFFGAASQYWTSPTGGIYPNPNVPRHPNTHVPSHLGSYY
Assay: co-immunoprecipitation with anti-V5 antibodies, HEK-293-T cells co-expressing HA- and V5-tagged proteins

B1: HA-EWS-FLI1 (protein, not shown: small tags and cut ends)
chain: MASTDYSTYSQAAAQQGYSAYTAQPTQGYAQTTQAYGQQSYGTYGQPTDVSYTQAQTTATYGQTAYATSYGQPPTGYTTPTAPQAYSQPVQGYGTGAYDTTTATVTTTQASYAAQSAYGTQPAYPAYGQQPAATAPTRPQDGNKPTETSQPQSSTGGYNQPSLGYGQSNYSYPQVPGSYPMQPVTAPPSYPPTSYSSTQPTSYDQSSYSQQNTYGQPSSYGQQSSYGQQSSYGQQPPTSYPPQTGSYSQAPSQYSQQSSSYGQQNPSYDSVRRGAWGNNMNSGLNKSPPLGGAQTISKNTEQRPQPDPYQILGPTSSRLANPGSGQIQLWQFLLELLSDSANASCITWEGTNGEFKMTDPDEVARRWGERKSKPNMNYDKLSRALRYYYDKNIMTKVHGKRYAYKFDFHGIAQALQPHPTESSMYKYPSDISYMPSYHAHQQKVNFVPPHPSSMPVTSSSFFGAASQYWTSPTGGIYPNPNVPRHPNTHVPSHLGSYY
- binding: binds
